This is an account of results in patent publication US20250171542A1.

To fix the notation:
B1: 32E2 (antibody, human IgG1, V domains shown)
VH: QEQLEESGGDLVKPEGSLTLTCTASGFSFSSSYYMSWVRQAPGMGLEWIASISGGVTDNAYYASWAKGRFTVSKTSSTTVTLQLTSLTAADTATYFCARDSSSGYFFLLWGPGTLVTVSS
VL: LVMTQTPSSVSAAVGGTVTINCQASQNIYSNLAWYQQKPGQRPKLLIFGASNLRSGVPSRFKGSGSGTEYTLTISDLECADAATYYCQEGYSIGNVDNPFGGGTEVVVK
B2: 27A2 (antibody, human IgG1, V domains shown)
VH: QEQLEESGGGLVQPEGSLTLTCTASGFSFSSNHYMSWVRQAPGKGLEWIGSIGVGSGITDYASWAKGRFTISKASSTTLTLQMTTLTAADTAIYFCARWTSGGGGFGLWGPGTLVTVSS
VL: QVLTQTSSPVSAAVGGTVTINCQSSQTIYSDYLFWYQQTPGQPPKLLIYQTSTLASGVPSRFKGSGSGTEFTLTISEIQCDDAATYYCQGYYSGYIWTFGGGTEVVVR
B3: 56H3 (antibody, human IgG1, V domains shown)
VH: B2 VH with E5V, G26E, S31N, H33Y, I49L, V54I, L79V
VL: B2 VL with T39K, K63S, E70Q, E77G, I78V, R108N
B4: 28B3 (antibody, human IgG1, V domains shown)
VH: QSVEESGGRLVTPGTPLTLSCTASGFSLSSYYMIWVRQAPGKGLEYIGYVYTGSGNTWYASWAKGRFAISKASTTVDLMITSPTTEDTATYFCASGADGVYDWGWDIWGPGTLVTVSL
VL: DIVMTQTPASVEAAVGDTVTIKCQASQSIYSLLAWYQQKPGQRPKLLIAGASNLESGVPSRFSGSGSGTEYTLTISALECADAATYYCQNNYDSGRIYGLAFGGGTEVVVK
B5: 55H3/76D6 (antibody, human IgG1, V domains shown)
VH: QEQLEESGGGLVQPEGSLTLTCTVSGFSFSGDYYMSWVRQAPGKGLEWVASIYTGSLNSYYATWAKGRFTISLTSSTTVTLQMTSLTAADTATYFCARRNKNADYGHFDLWGPGTLVTVSS
VL: YDMTQTPASVEVAVGGTVTIKCQASESINDRLAWYQQKPGQPPKLLIYAASTLASGVPSRFRGSGSGTDFTLTISDLECADAATYYCQQGWTVSSLDNAFGGGTEVVAM
B6: 57B10 (antibody, human IgG1, V domains shown)
VH: B5 VH with V24A, G31D, V49I, S59T, Y105W
VL: B5 VL with E26Q, N29S, D30T, R31A
B7: 56E5 (antibody, human IgG1, V domains shown)
VH: B5 VH with V24A, V49I, S59T, N100H
VL: B5 VL with A8G, E26Q, K38T, A49G, R62K, D69E, M109K
B8: 74F4 (antibody, human IgG1, V domains shown)
VH: B5 VH with V24A, V49I, S59T
VL: B5 VL with E26Q, K38S, A49G, R62K, M109K
B9: 57F11 (antibody, human IgG1, V domains shown)
VH: QEHLEESGGGLVQPEGALTLTCTASGFSFSGDYYMSWVRQAPGKGLEWIASIYTGSLNTYYATWAKGRFTISIASSTTVTLQVTSLTAADTATYFCARRTKNGDYGYFDLWGPGTLVTVSS
VL: B5 VL with E26Q, R62K, D69E, D97E, M109K
B10: 69D10 (antibody, human IgG1, V domains shown)
VH: B5 VH with V24A, Y33W, V49I, T54S, S59T, I71V
VL: B5 VL with E26Q, N29G, D30N, R31A, A50T, R62K, D69E, A80G, M109K
B11: 73C8 (antibody, human IgG1, V domains shown)
VH: B5 VH with S59T
VL: B5 VL with E26Q
B12: 62E6 (antibody, human IgG1, V domains shown)
VH: B5 VH with G10D, Q13K, V24A, V49I, S59I
VL: B5 VL with E26Q, G40R, A49G, R62K, D69E, A80V, M109K
B13: 33H7 (antibody, human IgG1, V domains shown)
VH: QEQLVESGGGLVQPEGSLTVTCTASGFDLSRYFYMSWVRQAPGKGLEWIASISTGSDITDYASWAKGRFTISKTSSTTVTLQMTTLTAADTAIYFCARWTSGGGGFGLWGPGTLVTVSS
VL: QVLTQTASPVSAAVGGTVTLNCQSSQSIYNNYLSWYQQRAGQPPKLLIYSTATLASGVPSRFKGSGSGTQFTLTISEIQCEDAATYYCQGYYSGYIWTFGGGTEVVVK
B14: 33E8 (antibody, human IgG1, V domains shown)
VH: QSLEESGGDLVKPGASLTLTCTASGFYFSSGYDMSWVRQAPGKGLEWIASIFTTSGSTWYANWAKGRFTISKTSSTTVTLQMTSLTDADTATYFCTKDGVGSFYMNLWGPGTLVTVSS
VL: LVMTQTPASVEVAVGGTVTIKCQASQTIGSNLAWYQQRPGQPPKLLIYKAFTLASGVSSRFKGSGSGTQFTLTISGVECADAATYYCQQGATRINIDNAFGGGTEVVVK
B15: 74A9 (antibody, human IgG1, V domains shown)
VH: QSVEESGGRLVTPGTPLTLTCAVSGFSLSTYALGWVRQAPGKGLEWIGSISIGGATYYASWAKGRFTISKTSTTVDLKIASPTTEDTATYFCARNVDSIYLDAFHTWGPGTLVTVSL
VL: DIVMTQTPASVEAAVGGTVTIKCQASQNIYNNLAWYQQKPGQPPKLLIYRASTLASGVPSRFKGSGSGTEYTLTISDLECDDAATYYCQTYYLTTTTNAFGGGTEVVVK

Substitutions are numbered along the chain they refer to. Results are given in words; binding and its absence hold for the method and conditions named. For part of these data: Binding can be weak; no strength is given.

For the first assay, the target named is cynomolgus PD-L1-His (Sino Biological, Cat. 90251-C08H) (cynomolgus). As to the kind of experiment: ELISA, coated cyno PD-L1-His.
On to B1, for which the binding entry was “binds”.
As for B2, the binding entry is on record as “binds”.
Still for that read-out and setting: the value for B3 was “binds”; that for B4 was “binds”; that for B5 was “binds”.
On the same count and under the same terms, as for B6, the entry is “binds”.
On the same count and under the same terms, as for B7, the entry is “binds”.
With B8, the binding result is reported as “binds”.
For the molecule B9, the binding result is “binds”.
The same measure, in the same setting: as for B10, the entry is “binds”; as for B11, “binds”.
Same read-out and setting: the value for B12 was “binds”; that for B13 was “binds”; that for B14 was “binds”.
As for B15, the binding result is recorded as “binds”.

A further assay deals with rabbit PD-L1 (Acro Biosystems, Cat #PDL-R52H6) (rabbit). The assay can be described thus: ELISA.
As for B1, the binding entry is reported as “no binding”.
On the same count and under the same terms, as for B2, the entry is “no binding”; as for B3, “no binding”; as for B4, “no binding”.
Same read-out and setting: as for B5, the entry is “no binding”; as for B6, “no binding”; as for B7, “no binding”.
For the molecule B8, the binding entry was “no binding”.
On the same count and under the same terms, the value for B9 was “no binding”; that for B10 was “no binding”.
The same measure, in the same setting: as for B11, the entry is “no binding”.
On the same count and under the same terms, as for B12, the entry is “no binding”.
As to B13, the binding result is reported as “no binding”.
Turning to B14, the binding result was “no binding”.
On the same count and under the same terms, as for B15, the entry is “no binding”.
